These results are taken from article PMC4789638.

Sequences of proteins named here, by UniProt entry; tags and fusion partners are left off. A change or cut given only in a name is not applied to a line headed by its entry.
UniProt P49841: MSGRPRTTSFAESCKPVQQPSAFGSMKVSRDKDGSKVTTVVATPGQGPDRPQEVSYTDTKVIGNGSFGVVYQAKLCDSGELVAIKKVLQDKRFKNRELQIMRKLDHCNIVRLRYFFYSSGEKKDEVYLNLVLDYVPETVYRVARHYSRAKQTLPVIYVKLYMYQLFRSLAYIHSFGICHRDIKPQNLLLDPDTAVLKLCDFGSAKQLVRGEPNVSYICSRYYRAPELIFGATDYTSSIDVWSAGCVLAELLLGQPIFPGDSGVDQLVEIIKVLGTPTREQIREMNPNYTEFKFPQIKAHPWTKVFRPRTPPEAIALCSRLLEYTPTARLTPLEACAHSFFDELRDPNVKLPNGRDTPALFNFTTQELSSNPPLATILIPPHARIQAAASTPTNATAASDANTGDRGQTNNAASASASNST

Assay [1] deals with endogenous GSK3β in H1299 cell lysate (human (endogenous in H1299)) (UniProt P49841). The experiment in a line: co-IP; H1299 cells transfected with Flag-hnRNPK, treated with or without TRAIL (20 ng/ml, 8 hours); precipitated with GSK3β antibody, blotted for Flag and GSK3β; lysis buffer 50 mM Tris pH 7.5, 150 mM NaCl, 1% NP-40, 0.5% deoxycholate, 0.1% SDS.
Assay [2] addresses GST-hnRNPK fusion protein (UniProt P61978). The experiment in a line: pull-down; GST-hnRNPK (60 μg) immobilized on glutathione sepharose beads, incubated with 1.5 mg H1299 whole cell lysate protein overnight at 4 °C; Western blot with GSK3β and phospho-GSK3β (Ser9) antibodies; only the target purified.
The target of a further assay is GST-GSK3β S9A (UniProt P49841). In words: pull-down; H1299 cell lysates incubated with GST-GSK3β wt or GST-GSK3β S9A; hnRNPK trapped compared (Fig. S1); only the target purified.
The target of a further assay is GST-GSK3β wt (UniProt P49841). The assay is described as above.

Results are given in words; binding and its absence hold for the method and conditions named. Binding seen in cells or lysates may run through a third protein. Some results given as binding are weak or reduced against the parent protein; the word gives no strength.

Turning to Flag-hnRNPK (from UniProt P61978 1-463), the binding entry in assay [1] is given as “binds”. Turning to “endogenous GSK3β in H1299 cell lysate (from UniProt P49841 1-420)”, the binding result in assay [2] is reported as “binds”. On to “hnRNPK in H1299 cell lysates (from UniProt P61978 1-463)”, for which the binding result with GST-GSK3β S9A and with GST-GSK3β wt was “binds” in each case. Turning to “phospho-GSK3β (Ser9), endogenous in H1299 cell lysate (from UniProt P49841 1-420)”, the binding entry in assay [2] is given as “binds”.
